Here are results for two molecules from PMC12655529, “Serendipitous Hinge Modulation Hypothetically Reprograms Caerin 1.1-LC Antibacterial Mechanism and Gram-Negative Selectivity” (Pharmaceutics, 2025).

The test system of one series is Gram-positive bacteria. The experiment in a line: Geometric mean MIC and therapeutic index, Gram-positive. In kind it is cell-based. The conditions noted are these: therapeutic index, calculated as HC10/GM MIC.
Another series has as its system Gram-negative bacteria. The experiment in a line: Geometric mean MIC and therapeutic index, Gram-negative. In kind it is cell-based. The conditions noted are these: therapeutic index, calculated as HC10/GM MIC.

Square brackets hold non-standard residues; d marks the D form. Ends that are not written are not given here. Peptide text beside a SMILES is read from it.

Regarding “GLLSVLGSLKLIVPHIIPLIAEKL-NH2 [Caerin 1.1-LC PHIIP]”, the “TI Gram-Positive” value in the series with Gram-positive bacteria is recorded as 0.3. Besides, in the series on Gram-negative bacteria, the “TI Gram-Negative” value was 0.15.

Regarding `CC[C@H](C)[C@H](NC(=O)[C@H](CCCCN)NC(=O)[C@@H]1CCCN1C(=O)[C@@H](CC(C)C)NC(=O)[C@H](C)NC(=O)[C@H](CCCCN)NC(=O)[C@@H]1CCCN1C(=O)[C@@H](NC(=O)[C@@H](NC(=O)[C@H](CC(C)C)NC(=O)[C@H](CCCCN)NC(=O)[C@H](CC(C)C)NC(=O)[C@H](CO)NC(=O)CNC(=O)[C@H](CC(C)C)NC(=O)[C@@H](NC(=O)[C@H](CO)NC(=O)[C@H](CC(C)C)NC(=O)[C@H](CC(C)C)NC(=O)CN)C(C)C)[C@@H](C)CC)C(C)C)C(=O)N[C@@H](C)C(=O)N[C@@H](CCC(=O)O)C(=O)N[C@@H](CCCCN)C(=O)N[C@@H](CC(C)C)C(N)=O` [Caerin 1.1-LC PKAL(D)P] (H-GLLSVLGSLKLIVPKA[dL]PKIAEKL-NH2; N-terminus assumed), the “TI Gram-Positive” value with Gram-positive bacteria is reported as 0.68. For the same molecule, the “TI Gram-Negative” value in the series with Gram-negative bacteria is listed as 8.91.
